Experimental data reported in PMC7372886.

Protein sequences, listed by entry. Tags and fused reporters are not part of them. Lines headed by an entry give the natural chain unless they say otherwise; changes in a name come on top.
UniProt P49327: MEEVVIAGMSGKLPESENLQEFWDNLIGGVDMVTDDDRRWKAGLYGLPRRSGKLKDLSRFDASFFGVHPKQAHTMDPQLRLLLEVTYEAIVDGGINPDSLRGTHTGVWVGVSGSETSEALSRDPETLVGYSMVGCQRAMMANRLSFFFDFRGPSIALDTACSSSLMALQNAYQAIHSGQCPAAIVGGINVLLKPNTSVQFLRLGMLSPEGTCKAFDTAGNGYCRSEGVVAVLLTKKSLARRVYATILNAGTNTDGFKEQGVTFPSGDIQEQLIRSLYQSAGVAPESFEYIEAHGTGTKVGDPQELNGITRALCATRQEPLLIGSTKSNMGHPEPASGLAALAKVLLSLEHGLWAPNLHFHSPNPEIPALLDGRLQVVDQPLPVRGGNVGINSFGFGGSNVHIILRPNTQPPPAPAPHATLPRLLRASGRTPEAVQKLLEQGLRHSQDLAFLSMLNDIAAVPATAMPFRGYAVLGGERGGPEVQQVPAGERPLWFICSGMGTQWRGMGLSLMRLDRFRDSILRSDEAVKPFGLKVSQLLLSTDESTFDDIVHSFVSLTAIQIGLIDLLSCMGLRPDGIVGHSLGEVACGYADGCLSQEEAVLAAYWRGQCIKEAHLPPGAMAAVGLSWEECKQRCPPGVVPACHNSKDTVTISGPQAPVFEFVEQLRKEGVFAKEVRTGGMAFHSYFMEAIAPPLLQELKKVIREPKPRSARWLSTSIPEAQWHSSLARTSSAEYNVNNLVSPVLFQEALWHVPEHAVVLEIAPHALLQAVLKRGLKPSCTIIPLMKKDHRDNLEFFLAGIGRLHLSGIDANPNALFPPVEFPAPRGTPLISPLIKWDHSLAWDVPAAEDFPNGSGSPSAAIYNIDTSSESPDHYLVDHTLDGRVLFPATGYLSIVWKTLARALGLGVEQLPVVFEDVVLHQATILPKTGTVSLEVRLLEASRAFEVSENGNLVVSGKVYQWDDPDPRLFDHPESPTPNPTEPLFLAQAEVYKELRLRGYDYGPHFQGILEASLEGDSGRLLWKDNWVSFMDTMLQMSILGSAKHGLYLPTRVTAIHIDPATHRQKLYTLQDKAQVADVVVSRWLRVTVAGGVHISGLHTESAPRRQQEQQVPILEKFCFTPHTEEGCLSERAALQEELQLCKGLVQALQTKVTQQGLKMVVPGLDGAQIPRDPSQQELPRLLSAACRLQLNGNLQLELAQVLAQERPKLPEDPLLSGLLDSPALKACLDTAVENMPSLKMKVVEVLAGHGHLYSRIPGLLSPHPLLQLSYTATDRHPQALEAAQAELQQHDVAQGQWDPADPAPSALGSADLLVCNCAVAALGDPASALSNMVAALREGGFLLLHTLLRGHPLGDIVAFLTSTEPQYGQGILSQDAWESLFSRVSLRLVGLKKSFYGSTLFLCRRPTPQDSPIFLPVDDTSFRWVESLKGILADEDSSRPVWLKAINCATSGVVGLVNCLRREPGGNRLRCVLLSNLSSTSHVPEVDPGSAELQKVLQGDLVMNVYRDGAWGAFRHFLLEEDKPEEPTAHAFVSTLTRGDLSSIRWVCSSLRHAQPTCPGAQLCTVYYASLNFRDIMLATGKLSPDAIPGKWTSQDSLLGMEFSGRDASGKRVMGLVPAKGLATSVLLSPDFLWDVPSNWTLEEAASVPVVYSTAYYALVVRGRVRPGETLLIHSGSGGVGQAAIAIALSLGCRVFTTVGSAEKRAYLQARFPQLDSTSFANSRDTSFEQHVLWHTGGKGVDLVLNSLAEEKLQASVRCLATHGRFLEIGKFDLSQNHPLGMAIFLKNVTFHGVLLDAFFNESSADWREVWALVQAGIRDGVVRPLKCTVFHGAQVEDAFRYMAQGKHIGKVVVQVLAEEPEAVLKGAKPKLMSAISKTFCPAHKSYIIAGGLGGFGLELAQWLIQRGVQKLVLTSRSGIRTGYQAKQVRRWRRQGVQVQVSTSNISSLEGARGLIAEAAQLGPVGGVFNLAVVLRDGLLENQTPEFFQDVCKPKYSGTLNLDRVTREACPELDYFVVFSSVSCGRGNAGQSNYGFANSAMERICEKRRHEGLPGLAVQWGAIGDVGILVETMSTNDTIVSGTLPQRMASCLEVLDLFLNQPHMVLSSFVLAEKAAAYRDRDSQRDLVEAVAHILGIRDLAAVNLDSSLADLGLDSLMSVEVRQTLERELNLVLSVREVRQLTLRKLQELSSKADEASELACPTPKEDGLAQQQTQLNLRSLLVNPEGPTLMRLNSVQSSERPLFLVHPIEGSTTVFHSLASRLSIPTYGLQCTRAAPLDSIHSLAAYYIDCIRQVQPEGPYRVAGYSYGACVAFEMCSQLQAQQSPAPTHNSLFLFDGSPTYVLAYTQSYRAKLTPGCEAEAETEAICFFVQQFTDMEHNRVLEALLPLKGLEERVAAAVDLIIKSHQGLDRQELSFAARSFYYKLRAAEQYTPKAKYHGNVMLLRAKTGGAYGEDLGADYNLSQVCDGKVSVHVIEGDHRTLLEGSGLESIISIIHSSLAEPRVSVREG
UniProt Q562M3: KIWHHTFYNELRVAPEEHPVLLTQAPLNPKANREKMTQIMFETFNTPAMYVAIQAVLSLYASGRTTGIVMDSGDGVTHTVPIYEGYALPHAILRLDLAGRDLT
UniProt P04899: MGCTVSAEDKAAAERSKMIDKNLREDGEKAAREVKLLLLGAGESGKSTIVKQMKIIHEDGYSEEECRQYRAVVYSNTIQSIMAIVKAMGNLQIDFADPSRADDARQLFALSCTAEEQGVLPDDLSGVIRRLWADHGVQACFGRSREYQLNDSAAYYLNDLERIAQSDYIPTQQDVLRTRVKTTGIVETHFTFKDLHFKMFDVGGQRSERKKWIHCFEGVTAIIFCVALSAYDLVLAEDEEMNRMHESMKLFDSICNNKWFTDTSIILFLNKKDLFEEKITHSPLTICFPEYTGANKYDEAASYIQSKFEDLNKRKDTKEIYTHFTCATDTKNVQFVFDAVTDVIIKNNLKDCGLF
UniProt Q14651: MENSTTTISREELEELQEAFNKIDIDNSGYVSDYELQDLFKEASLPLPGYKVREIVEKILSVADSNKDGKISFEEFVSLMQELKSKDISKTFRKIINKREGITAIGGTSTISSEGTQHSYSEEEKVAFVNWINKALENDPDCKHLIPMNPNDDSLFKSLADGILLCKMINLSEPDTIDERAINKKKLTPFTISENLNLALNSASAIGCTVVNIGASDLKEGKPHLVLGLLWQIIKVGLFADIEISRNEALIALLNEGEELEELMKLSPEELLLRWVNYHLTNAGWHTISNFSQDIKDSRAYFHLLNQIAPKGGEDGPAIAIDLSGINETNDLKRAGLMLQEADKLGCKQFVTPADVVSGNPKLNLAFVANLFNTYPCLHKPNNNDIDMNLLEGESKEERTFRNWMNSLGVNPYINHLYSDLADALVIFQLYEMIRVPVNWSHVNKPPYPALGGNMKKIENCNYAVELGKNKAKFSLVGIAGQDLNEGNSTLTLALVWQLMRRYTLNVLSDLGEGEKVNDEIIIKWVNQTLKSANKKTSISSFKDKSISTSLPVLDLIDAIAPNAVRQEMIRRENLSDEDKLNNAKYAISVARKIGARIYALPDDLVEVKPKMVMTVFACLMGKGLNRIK
UniProt Q4KMQ1: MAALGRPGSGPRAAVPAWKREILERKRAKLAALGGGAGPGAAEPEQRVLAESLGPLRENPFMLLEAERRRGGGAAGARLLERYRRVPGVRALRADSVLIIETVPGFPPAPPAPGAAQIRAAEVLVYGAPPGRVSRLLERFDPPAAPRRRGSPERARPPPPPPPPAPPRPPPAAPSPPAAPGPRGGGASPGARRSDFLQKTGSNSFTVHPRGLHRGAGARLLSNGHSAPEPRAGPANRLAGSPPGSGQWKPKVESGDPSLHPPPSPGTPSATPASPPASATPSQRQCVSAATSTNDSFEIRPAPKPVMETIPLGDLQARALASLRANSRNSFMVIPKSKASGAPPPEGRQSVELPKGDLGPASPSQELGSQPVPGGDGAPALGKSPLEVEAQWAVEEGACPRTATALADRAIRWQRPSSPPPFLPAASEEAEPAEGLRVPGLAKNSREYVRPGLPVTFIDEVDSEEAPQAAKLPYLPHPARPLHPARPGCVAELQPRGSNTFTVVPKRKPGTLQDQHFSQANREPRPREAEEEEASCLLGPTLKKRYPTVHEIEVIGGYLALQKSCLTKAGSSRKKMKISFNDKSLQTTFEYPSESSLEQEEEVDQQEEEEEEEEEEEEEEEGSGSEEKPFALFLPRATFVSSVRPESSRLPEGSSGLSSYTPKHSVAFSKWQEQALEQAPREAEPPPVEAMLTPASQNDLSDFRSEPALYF
UniProt P07951: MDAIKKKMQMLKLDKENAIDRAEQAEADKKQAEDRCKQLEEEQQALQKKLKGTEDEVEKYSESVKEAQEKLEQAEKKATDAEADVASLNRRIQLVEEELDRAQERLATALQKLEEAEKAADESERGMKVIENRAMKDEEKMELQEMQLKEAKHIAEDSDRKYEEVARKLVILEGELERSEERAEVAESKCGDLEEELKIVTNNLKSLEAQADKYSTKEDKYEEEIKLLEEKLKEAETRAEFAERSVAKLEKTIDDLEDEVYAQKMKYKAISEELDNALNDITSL
UniProt Q9BY89: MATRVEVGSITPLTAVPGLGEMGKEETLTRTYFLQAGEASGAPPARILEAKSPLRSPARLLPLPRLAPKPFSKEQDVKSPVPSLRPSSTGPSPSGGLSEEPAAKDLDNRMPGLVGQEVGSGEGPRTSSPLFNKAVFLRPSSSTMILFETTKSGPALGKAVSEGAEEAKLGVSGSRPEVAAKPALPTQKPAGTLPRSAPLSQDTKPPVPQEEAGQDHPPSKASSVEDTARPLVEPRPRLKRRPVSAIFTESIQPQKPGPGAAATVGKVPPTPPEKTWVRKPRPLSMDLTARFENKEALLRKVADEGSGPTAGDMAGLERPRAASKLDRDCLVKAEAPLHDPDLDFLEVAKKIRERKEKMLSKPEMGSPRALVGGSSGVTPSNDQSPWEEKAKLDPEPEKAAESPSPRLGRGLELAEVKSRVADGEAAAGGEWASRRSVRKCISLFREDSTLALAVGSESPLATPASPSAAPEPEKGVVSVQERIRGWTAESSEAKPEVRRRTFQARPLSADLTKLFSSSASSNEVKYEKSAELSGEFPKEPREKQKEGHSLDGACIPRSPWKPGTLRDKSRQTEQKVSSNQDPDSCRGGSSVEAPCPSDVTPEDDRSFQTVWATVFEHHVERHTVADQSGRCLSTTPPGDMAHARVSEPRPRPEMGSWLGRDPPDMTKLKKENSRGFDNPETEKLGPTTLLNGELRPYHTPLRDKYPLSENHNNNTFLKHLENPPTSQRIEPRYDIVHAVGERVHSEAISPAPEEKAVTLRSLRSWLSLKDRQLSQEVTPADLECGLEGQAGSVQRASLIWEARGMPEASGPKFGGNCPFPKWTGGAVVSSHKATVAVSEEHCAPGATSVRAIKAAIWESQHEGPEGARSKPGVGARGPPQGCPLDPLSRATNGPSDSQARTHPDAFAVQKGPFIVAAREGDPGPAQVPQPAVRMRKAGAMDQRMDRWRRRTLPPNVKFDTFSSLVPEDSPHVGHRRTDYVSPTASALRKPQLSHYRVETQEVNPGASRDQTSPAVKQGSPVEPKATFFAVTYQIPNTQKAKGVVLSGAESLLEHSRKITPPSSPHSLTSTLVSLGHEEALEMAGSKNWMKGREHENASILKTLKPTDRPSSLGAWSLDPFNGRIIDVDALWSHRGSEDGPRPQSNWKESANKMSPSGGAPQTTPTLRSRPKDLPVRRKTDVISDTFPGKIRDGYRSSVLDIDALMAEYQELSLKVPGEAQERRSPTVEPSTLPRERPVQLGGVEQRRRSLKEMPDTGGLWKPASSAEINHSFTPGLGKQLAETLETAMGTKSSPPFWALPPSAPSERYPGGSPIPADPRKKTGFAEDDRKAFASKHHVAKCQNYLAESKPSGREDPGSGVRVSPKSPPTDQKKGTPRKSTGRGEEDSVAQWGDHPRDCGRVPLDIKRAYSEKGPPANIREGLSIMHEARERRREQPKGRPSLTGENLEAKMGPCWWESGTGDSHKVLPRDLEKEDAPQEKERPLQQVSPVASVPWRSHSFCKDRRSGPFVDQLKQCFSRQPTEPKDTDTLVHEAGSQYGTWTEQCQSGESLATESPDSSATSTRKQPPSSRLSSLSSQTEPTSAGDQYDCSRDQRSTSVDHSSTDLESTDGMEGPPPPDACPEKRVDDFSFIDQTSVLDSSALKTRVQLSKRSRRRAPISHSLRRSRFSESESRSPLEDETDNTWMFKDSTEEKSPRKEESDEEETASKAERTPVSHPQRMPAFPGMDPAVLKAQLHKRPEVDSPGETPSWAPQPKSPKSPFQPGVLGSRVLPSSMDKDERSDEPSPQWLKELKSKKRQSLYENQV

Target: Fatty acid synthase (human (endogenous in HepG2 and SMMC7721)) (UniProt P49327)
Experiment: affinity purification with mass spectrometry; FASN antibody and Protein A/G agarose beads on whole cell lysates of HepG2 cells transfected with control siRNA or FASN siRNA; eluted proteins iTRAQ-labelled (114, 117 against 118, 121), Nano LC ESI MS/MS

Substance	binding
Actin-binding LIM protein 1 (from UniProt O14639 1-778)	binds
Actin-like protein (Fragment) (from UniProt Q562M3)	binds
Alkaline phosphatase, placental type (from UniProt P05187 23-506)	binds
Alpha-actinin-1 (from UniProt P12814 1-892)	binds
Alpha-actinin-4 (from UniProt O43707 1-911)	binds
Beta-actin-like protein 2 (from UniProt Q562R1 1-376)	binds
CD109 antigen (from UniProt Q6YHK3 22-1420)	binds
DERP12 (Dermal papilla derived protein 12) (from UniProt Q8TE01)	binds
Dedicator of cytokinesis protein 7 (from UniProt Q96N67 1-2140)	binds
Desmoglein-2 (from UniProt Q14126 50-1118)	binds
Drebrin (from UniProt Q16643 1-649)	binds
E3 ubiquitin-protein ligase TRIM21 (from UniProt P19474 1-475)	binds
Formin-like protein 1 (from UniProt O95466 1-1100)	binds
Formin-like protein 2 (from UniProt Q96PY5 1-1086)	binds
Guanine nucleotide-binding protein G(I)/G(S)/G(T) subunit beta-2 (from UniProt P62879 1-340)	binds
Guanine nucleotide-binding protein G(i) subunit alpha-2 (from UniProt P04899 1-355)	binds
Guanine nucleotide-binding protein G(k) subunit alpha (from UniProt P08754 1-354)	binds
Keratin 1 (from UniProt P04264 1-644)	binds
Keratin, type I cytoskeletal 10 (from UniProt P13645 1-584)	binds
Keratin, type II cytoskeletal 2 epidermal (from UniProt P35908 1-639)	binds
Laminin subunit alpha-5 (from UniProt O15230 36-3695)	binds

Substance	binding
Myosin-9 (from UniProt P35579 1-1960)	binds
Myosin-10 (from UniProt P35580 1-1976)	binds
Myosin-14 (from UniProt Q7Z406 1-1995)	binds
Neurabin-2 (from UniProt Q96SB3 1-817)	binds
PRKC apoptosis WT1 regulator protein (from UniProt Q96IZ0 1-340)	binds
Plastin-1 (from UniProt Q14651 1-629)	binds
Protein-L-isoaspartate O-methyltransferase domain-containing protein 1 (from UniProt Q96MG8 1-357)	binds
Spectrin alpha chain, non-erythrocytic 1 (from UniProt Q13813 1-2472)	binds
Spectrin beta chain, non-erythrocytic 1 (from UniProt Q01082 1-2364)	binds
Spectrin beta chain, non-erythrocytic 2 (from UniProt O15020 1-2390)	binds
Supervillin (from UniProt O95425 1-2214)	binds
TBC1 domain family, member 5, isoform CRA_b (from UniProt Q92609 1-795)	binds
Taperin (from UniProt Q4KMQ1 1-711)	binds
Tight junction protein ZO-1 (from UniProt Q07157 1-1748)	binds
Tropomyosin alpha-1 chain (from UniProt P09493 1-284)	binds
Tropomyosin alpha-4 chain (Fragment) (from UniProt P67936 1-248)	binds
Tropomyosin beta chain (from UniProt P07951 1-284)	binds
Twinfilin-1 (from UniProt Q12792 1-350)	binds
Uncharacterized protein KIAA1671 (from UniProt Q9BY89 1-1806)	binds
Unconventional myosin-Ib (from UniProt O43795 1-1136)	binds
Unconventional myosin-Vc (from UniProt Q9NQX4 1-1742)	binds

No constants are given. Whether binding was seen depends on the method and setting. Binding seen in cells or lysates may run through a third protein. Here binding means that the protein was enriched with, or labelled near, the bait; the list need not be complete.
